Experimental data published in the supplement of paper PMC4604168 (melanoma cell lines).
The other results are listed elsewhere or left out. Repeats are few or missing, and single values can be far off.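 The apoptosis fraction was the count of cleaved-PARP antibody-stained nuclei relative to all DNA-stained nuclei, imaged in 1,536-well plates. Screening doses were set so most cells survived, and baseline and induced cleaved-PARP levels vary greatly across cell lines.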

Test system: CBRC017 (line from a melanoma biopsy)
Assay: cleaved PARP positive nuclei fraction relative to DMSO control; melanoma cells; higher = more apoptosis
Conditions: library dose: low library concentration; 72 h

Compound	cleaved PARP positive nuclei fraction
NC(=O)c1ccc(N(C(N)=O)c2c(F)cccc2F)nc1-c1ccc(F)cc1F + COCC[n+]1c2c(n(Cc3cnccn3)c1C)C(=O)c1ccccc1C2=O [YM155] (first compound 0.4 µM, partner dose 0.0004 µM)	74.1%
NC1(c2ccc(-c3nc4ccn5c(=O)[nH]nc5c4cc3-c3ccccc3)cc2)CCC1 + CO[C@@H]1[C@H](N(C)C(=O)c2ccccc2)C[C@H]2O[C@]1(C)n1c3ccccc3c3c4c(c5c6ccccc6n2c5c31)C(=O)NC4 [Midostaurin] (first compound 0.4 µM, partner dose 0.08 µM)	78.3%
CC1(C)CCC(c2ccc(Cl)cc2)=C(CN2CCN(c3ccc(C(=O)NS(=O)(=O)c4ccc(N[C@H](CCN5CCOCC5)CSc5ccccc5)c(S(=O)(=O)C(F)(F)F)c4)cc3)CC2)C1 + Cn1nnc2c(C(N)=O)ncn2c1=O [temozolomide] (first compound 0.4 µM, partner dose 2 µM)	403%
CN(c1ncccc1CNc1nc(Nc2ccc3c(c2)CC(=O)N3)ncc1C(F)(F)F)S(C)(=O)=O + CO[C@@H]1[C@H](N(C)C(=O)c2ccccc2)C[C@H]2O[C@]1(C)n1c3ccccc3c3c4c(c5c6ccccc6n2c5c31)C(=O)NC4 [Midostaurin] (first compound 0.08 µM, partner dose 0.08 µM)	101%
Cn1sc(=O)n(Cc2ccccc2)c1=O + c1cc(-c2cnn3cc(-c4ccc(OCCN5CCCCC5)cc4)cnc23)ccn1 [Dorsomorphin] (first compound 0.4 µM, partner dose 0.4 µM)	81.8%
CC(=O)O[C@@]12CO[C@@H]1C[C@H](O)[C@@]1(C)C(=O)[C@H](O)C3=C(C)[C@@H](OC(=O)[C@H](O)[C@@H](NC(=O)OC(C)(C)C)c4ccccc4)C[C@@](O)([C@@H](OC(=O)c4ccccc4)[C@H]21)C3(C)C [Docetaxel] + N#Cc1c(O)c2c(-c3ccc(-c4ccccc4O)cc3)csc2[nH]c1=O [A769662] (first compound 0.0001 µM, partner dose 2 µM)	136%
Cn1cnc2c(F)c(Nc3ccc(Br)cc3Cl)c(C(=O)NOCCO)cc21 [selumetinib] + OCCn1cc(-c2cnc3nnn(Cc4ccc5ncccc5c4)c3n2)cn1 [PF04217903] (first compound 0.015 µM, partner dose 1 µM)	100%
Cn1cnc2c(F)c(Nc3ccc(Br)cc3Cl)c(C(=O)NOCCO)cc21 [selumetinib] + Oc1cc(-c2nc(-c3ccccc3)[nH]c2-c2ccncc2)ccc1Cl [L779450] (first compound 0.015 µM, partner dose 0.2 µM)	97.5%
Cn1sc(=O)n(Cc2ccccc2)c1=O + CCCCCCCCCCCC1=C(O)C(=O)C=C(O)C1=O [Embelin] (first compound 0.4 µM, partner dose 1.2 µM)	85.4%
CCN(CC)CCNC(=O)c1c(C)[nH]c(/C=C2\C(=O)Nc3ccc(F)cc32)c1C [sunitinib] + CCc1ccc(CCOc2ccc(CC3SC(=O)NC3=O)cc2)nc1 [pioglitazone] (first compound 0.4 µM, partner dose 2 µM)	81.6%

Test system: CBRC034 (line from a melanoma biopsy)
Assay: as above
Conditions: library dose: low library concentration; 72 h

Compound	cleaved PARP positive nuclei fraction
Cn1cnc2c(F)c(Nc3ccc(Br)cc3Cl)c(C(=O)NOCCO)cc21 [selumetinib] + C=CCNC1=C2C[C@@H](C)C[C@H](OC)[C@H](O)[C@@H](C)/C=C(\C)[C@H](OC(N)=O)[C@@H](OC)/C=C\C=C(/C)C(=O)NC(=CC1=O)C2=O [Tanespimycin] (first compound 0.015 µM, partner dose 0.002 µM)	118%
CC1(C)CCC(c2ccc(Cl)cc2)=C(CN2CCN(c3ccc(C(=O)NS(=O)(=O)c4ccc(N[C@H](CCN5CCOCC5)CSc5ccccc5)c(S(=O)(=O)C(F)(F)F)c4)cc3)CC2)C1 + Nc1nc(F)nc2c1ncn2[C@@H]1O[C@H](CO)[C@@H](O)[C@@H]1O [fludarabine] (first compound 0.4 µM, partner dose 0.2 µM)	153%
Cn1sc(=O)n(Cc2ccccc2)c1=O + C=CCNC1=C2C[C@@H](C)C[C@H](OC)[C@H](O)[C@@H](C)/C=C(\C)[C@H](OC(N)=O)[C@@H](OC)/C=C\C=C(/C)C(=O)NC(=CC1=O)C2=O [Tanespimycin] (first compound 0.4 µM, partner dose 0.002 µM)	89%
NC(=O)c1ccc(N(C(N)=O)c2c(F)cccc2F)nc1-c1ccc(F)cc1F + COCC[n+]1c2c(n(Cc3cnccn3)c1C)C(=O)c1ccccc1C2=O [YM155] (first compound 0.4 µM, partner dose 0.0004 µM)	88.4%
CC1(C)CCC(c2ccc(Cl)cc2)=C(CN2CCN(c3ccc(C(=O)NS(=O)(=O)c4ccc(N[C@H](CCN5CCOCC5)CSc5ccccc5)c(S(=O)(=O)C(F)(F)F)c4)cc3)CC2)C1 + Cn1nnc2c(C(N)=O)ncn2c1=O [temozolomide] (first compound 0.4 µM, partner dose 2 µM)	200%
